Results published in the supplement of paper PMC8728848.
The list shows a part of the results.

Experiments:
Assay in all cases: glycan array binding signal (z-score within array); higher = stronger binding
Details in all cases: glycan notation: IUPAC condensed, linker removed
[1] = molecular target: GlcNAc(b1-4)GlcNAc(b1-4)GlcNAc(b1-4)GlcNAc(b1-4)GlcNAc(b1-4)GlcNAc
Procedure, shortened: (§1)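 From the Consortium for Functional Glycomics database, 3228 arrays were curated, keeping only those whose protein sequence was available. Binding is given as a within-array Z-score averaged across arrays sharing a protein sequence and across linkers. Negative Z-scores can be read as non-binding.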

[2] = molecular target: GlcNAc(b1-4)[GlcNAc(b1-6)]GalNAc
Procedure, shortened: as §1

[3] = molecular target: GlcNAc(b1-6)Gal(b1-4)GlcNAc
Procedure, shortened: as §1

GlcNAc(b1-6)GalNAc = molecular target: GlcNAc(b1-6)GalNAc
Procedure, shortened: as §1

[4] = molecular target: GlcNAc6S(b1-3)Gal(b1-4)GlcNAc
Procedure, shortened: as §1

Kdn(a2-3)Gal(b1-3)GalNAc = molecular target: Kdn(a2-3)Gal(b1-3)GalNAc
Procedure, shortened: as §1

Kdn(a2-3)Gal(b1-3)GlcNAc = molecular target: Kdn(a2-3)Gal(b1-3)GlcNAc
Procedure, shortened: as §1

Kdn(a2-3)Gal(b1-4)Glc = molecular target: Kdn(a2-3)Gal(b1-4)Glc
Procedure, shortened: as §1

Kdn(a2-3)Gal(b1-4)GlcNAc = molecular target: Kdn(a2-3)Gal(b1-4)GlcNAc
Procedure, shortened: as §1

[5] = molecular target: Kdn(a2-3)Gal(b1-4)[Fuc(a1-3)]GlcNAc
Procedure, shortened: as §1

Kdn(a2-6)Gal(b1-4)GlcNAc = molecular target: Kdn(a2-6)Gal(b1-4)GlcNAc
Procedure, shortened: as §1

[6] = molecular target: Man(a1-2)Man(a1-2)Man(a1-3)Man
Procedure, shortened: as §1

[7] = molecular target: Man(a1-2)Man(a1-2)Man(a1-6)[Man(a1-3)]Man
Procedure, shortened: as §1

Man(a1-2)Man(a1-3)Man = molecular target: Man(a1-2)Man(a1-3)Man
Procedure, shortened: as §1

[8] = molecular target: Man(a1-2)Man(a1-3)[Man(a1-2)Man(a1-6)]Man
Procedure, shortened: as §1

[9] = molecular target: Man(a1-2)Man(a1-3)[Man(a1-2)Man(a1-6)]Man(a1-6)[Man(a1-2)Man(a1-2)Man(a1-3)]Man
Procedure, shortened: as §1

[10] = molecular target: Man(a1-2)Man(a1-3)[Man(a1-2)Man(a1-6)]Man(a1-6)[Man(a1-2)Man(a1-2)Man(a1-3)]Man(b1-4)GlcNAc(b1-4)GlcNAc
Procedure, shortened: as §1

[11] = molecular target: Man(a1-2)Man(a1-3)[Man(a1-6)]Man(a1-6)[Man(a1-2)Man(a1-3)]Man(b1-4)GlcNAc(b1-4)GlcNAc
Procedure, shortened: as §1

[12] = molecular target: Man(a1-2)Man(a1-6)[Man(a1-3)]Man(a1-6)[Man(a1-2)Man(a1-2)Man(a1-3)]Man
Procedure, shortened: as §1

[13] = molecular target: Man(a1-2)Man(a1-6)[Man(a1-3)]Man(a1-6)[Man(a1-2)Man(a1-2)Man(a1-3)]Man(b1-4)GlcNAc(b1-4)GlcNAc
Procedure, shortened: as §1

Man(a1-3)[Man(a1-6)]Man = molecular target: Man(a1-3)[Man(a1-6)]Man
Procedure, shortened: as §1

[14] = molecular target: Man(a1-3)[Man(a1-6)]Man(a1-6)[Man(a1-2)Man(a1-3)]Man(b1-4)GlcNAc(b1-4)GlcNAc
Procedure, shortened: as §1

[15] = molecular target: Man(a1-3)[Man(a1-6)]Man(a1-6)[Man(a1-3)]Man
Procedure, shortened: as §1

[16] = molecular target: Man(a1-3)[Man(a1-6)]Man(a1-6)[Man(a1-3)]Man(b1-4)GlcNAc(b1-4)GlcNAc
Procedure, shortened: as §1

[17] = molecular target: Man(a1-3)[Man(a1-6)]Man(b1-4)GlcNAc(b1-4)GlcNAc
Procedure, shortened: as §1

[18] = molecular target: Man(a1-3)[Man(a1-6)]Man(b1-4)GlcNAc(b1-4)[Fuc(a1-6)]GlcNAc
Procedure, shortened: as §1

Man(a1-6)Man = molecular target: Man(a1-6)Man
Procedure, shortened: as §1

Man(b1-4)GlcNAc = molecular target: Man(b1-4)GlcNAc
Procedure, shortened: as §1

MurNAc(b1-4)GlcNAc = molecular target: MurNAc(b1-4)GlcNAc
Procedure, shortened: as §1

Neu5Ac(a2-3)Gal = molecular target: Neu5Ac(a2-3)Gal
Procedure, shortened: as §1

[19] = molecular target: Neu5Ac(a2-3)Gal(b1-3)GalNAc
Procedure, shortened: as §1

[20] = molecular target: Neu5Ac(a2-3)Gal(b1-3)GalNAc(b1-3)Gal(a1-4)Gal(b1-4)Glc
Procedure, shortened: as §1

[21] = molecular target: Neu5Ac(a2-3)Gal(b1-3)GalNAc(b1-4)[Neu5Ac(a2-3)]Gal(b1-4)Glc
Procedure, shortened: as §1

[22] = molecular target: Neu5Ac(a2-3)Gal(b1-3)GalNAc(b1-4)[Neu5Ac(a2-8)Neu5Ac(a2-3)]Gal(b1-4)Glc
Procedure, shortened: as §1

[23] = molecular target: Neu5Ac(a2-3)Gal(b1-3)GalNAc6S
Procedure, shortened: as §1

[24] = molecular target: Neu5Ac(a2-3)Gal(b1-3)GlcNAc
Procedure, shortened: as §1

[25] = molecular target: Neu5Ac(a2-3)Gal(b1-3)GlcNAc(b1-2)Man
Procedure, shortened: as §1

B1: HopZSSI-T (Helicobacter pylori), B5Z6D0 (protein)
chain: MGSSHHHHHHSSGLVPRGSHMENLYFQGEDNGFFISAGYQIGEAAQMVKNTGELKKLSDTYENLSNLLTNFNNLNQAVTNASSPSEINAAIDNLKANTQGLTGEKTNSPAYQAVYLALNAAVGLWNVIAYNVQCGPGNSSQQSVTFEGQPGHNSSSINCNLTGYNNGVSGPLSIDNFKQLNQAYQVLQQALKQGVPVLNNTNQKIEVKVTTQTNGQSSKETTTTTTTNDAQTLLQEASKMIDVLTTNCPWVNHNPGQNGGAPWGLIRQECVSGFATEFSAVTSMIKNAQEIVTQAQSLNANQNNQNAPQDFNPYTSADRAFAQNMLNHAQAQAKILELADQMKKDLNTIPSQFITNYLAACRIDGTTPSQGVTNNTWGAGCAYVEETITALNNSLAHFGTQAEQIKQSELLARTILDFRGSLSTLNSTYNSITTTASNTPNSPFLKNLISQSTNPNNPGGLQAVYQVNQSAYSQLLSATQELGHNPFRRIGLISSQT
[1]
  glycan array binding signal (z-score): -0.476
[2]
  glycan array binding signal (z-score): -0.345
[3]
  glycan array binding signal (z-score): -0.112
GlcNAc(b1-6)GalNAc
  glycan array binding signal (z-score): -0.307
[4]
  glycan array binding signal (z-score): -0.089
Kdn(a2-3)Gal(b1-3)GalNAc
  glycan array binding signal (z-score): -0.302
Kdn(a2-3)Gal(b1-3)GlcNAc
  glycan array binding signal (z-score): 0.73
Kdn(a2-3)Gal(b1-4)Glc
  glycan array binding signal (z-score): 0.371
Kdn(a2-3)Gal(b1-4)GlcNAc
  glycan array binding signal (z-score): 0.049
[5]
  glycan array binding signal (z-score): 0.44
Kdn(a2-6)Gal(b1-4)GlcNAc
  glycan array binding signal (z-score): 0.273
[6]
  glycan array binding signal (z-score): -0.506
[7]
  glycan array binding signal (z-score): -0.601
Man(a1-2)Man(a1-3)Man
  glycan array binding signal (z-score): 0.122
[8]
  glycan array binding signal (z-score): 0.69
[9]
  glycan array binding signal (z-score): -0.136
[10]
  glycan array binding signal (z-score): -0.189
[11]
  glycan array binding signal (z-score): -0.802
[12]
  glycan array binding signal (z-score): -0.645
[13]
  glycan array binding signal (z-score): -0.122
Man(a1-3)[Man(a1-6)]Man
  glycan array binding signal (z-score): 0.071
[14]
  glycan array binding signal (z-score): -0.359
[15]
  glycan array binding signal (z-score): -0.268
[16]
  glycan array binding signal (z-score): 0.762
[17]
  glycan array binding signal (z-score): -0.05
[18]
  glycan array binding signal (z-score): -0.579
Man(a1-6)Man
  glycan array binding signal (z-score): 1.01
Man(b1-4)GlcNAc
  glycan array binding signal (z-score): 0.94
MurNAc(b1-4)GlcNAc
  glycan array binding signal (z-score): -0.781
Neu5Ac(a2-3)Gal
  glycan array binding signal (z-score): -0.232
[19]
  glycan array binding signal (z-score): -0.544
[20]
  glycan array binding signal (z-score): -0.102
[21]
  glycan array binding signal (z-score): -0.375
[22]
  glycan array binding signal (z-score): 0.208
[23]
  glycan array binding signal (z-score): 0.457
[24]
  glycan array binding signal (z-score): -0.085
[25]
  glycan array binding signal (z-score): 0.984
